Reference: paper PMC12853880
These are yes or no findings as the source states them, for the method shown. In cells and extracts the contact can be indirect. Some entries that bind do so weakly or less than the wild type. Where a sequence is shown, tags or fusion partners need not be part of it.

Sequences of proteins named here, by UniProt entry; tags and fusion partners are left off.
UniProt O24456: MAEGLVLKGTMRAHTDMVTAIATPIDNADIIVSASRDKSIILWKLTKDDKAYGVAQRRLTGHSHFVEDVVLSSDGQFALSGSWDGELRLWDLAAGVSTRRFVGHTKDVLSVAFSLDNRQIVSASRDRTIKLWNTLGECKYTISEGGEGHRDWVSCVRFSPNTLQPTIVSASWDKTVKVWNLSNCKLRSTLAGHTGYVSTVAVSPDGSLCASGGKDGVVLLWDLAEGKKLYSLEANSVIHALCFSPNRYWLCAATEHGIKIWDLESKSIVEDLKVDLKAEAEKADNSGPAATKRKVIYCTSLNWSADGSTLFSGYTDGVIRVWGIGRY

Biological target: YFPn-RACK1A (Arabidopsis thaliana) (UniProt O24456)
Test: split reporter; ratiometric BiFC (rBiFC, 2in1 vectors) in transiently transformed N. benthamiana leaf epidermal cells; YFP to RFP ratio in nuclei and cytosol, normalised to the positive control

Binder	binding
NUDT7-YFPc (NUDIX HYDROLASE 7 fused to the C-terminal part of YFP) (enzyme, UniProt Q9SU14 1-282) MGTRAQQIPLLEGETDNYDGVTVTMVEPMDSEVFTESLRASLSHWREEGKKGIWIKLPLGLANLVEAAVSEGFRYHHAEPEYLMLVSWISETPDTIPANASHVVGAGALVINKNTKEVLVVQERSGFFKDKNVWKLPTGVINEGEDIWTGVAREVEEETGIIADFVEVLAFRQSHKAILKKKTDMFFLCVLSPRSYDITEQKSEILQAKWMPIQEYVDQPWNKKNEMFKFMANICQKKCEEEYLGFAIVPTTTSSGKESFIYCNADHAKRLKVSRDQASASL	binds
TSN1 fused to the C-terminal part of YFP (YFPc) (protein, UniProt Q8VZG7 1-991) MATGAENQWLKGRVKAVTSGDCLVITALSHNRAGPPPEKTITFSSLMAPKMARRGGIDEPFAWESKEFLRKLCIGKEVAFKVDYKVEAIAGREFGSVFLGNENLAKLVVKTGWAKVREPGQQNQDKVSPYIKELLQLEELAKQEGYGRWSKVPGAAEASIRNLPPSAIGDSAGFDAMGLLAANKGKPMEGIVEQVRDGSTIRVYLLPEFQFVQVFVAGVQAPSMGRRTTNGSVVETVPDEPNGDVSAESRGPLTTAQRLAASAASSVEVSSDPFATEAKYFTEHRVLSRDVRIVLEGVDKFNNLIGSVHYSDGETVKDLGLELVENGLAKFVEWSANMMEEEAKKKLKAAELQCKKDKVKMWANYVPPATNSKAIHDQNFTGKVVEVVSGDCLIVADDAVPFGSPAAERRVCLSSIRSPKMGNPRREEKPAPYAREAREFLRQRLIGKQVIVQMEYSRKVTQGDGPTTSGAADRFMDFGSVFLPSAAKADSDEVTAPPAAAIAGSQPVGVNIAELVLVRGFGNVVRHRDFEERSNHYDALLAAEARALAGKKGIHSAKESPAMHITDLTVSAAKKAKDFLPSLQRIRRIPAVVEYVLSGHRFKLYIPKITCSIAFSFSGVRCPGRGEPYSEEAISVMRRRIMQRDVEIEVETVDRTGTFLGSMWESRTNVATVLLEAGLAKMQTSFGADRIAEAHLLEQAERSAKNQKLKIWENYVEGEEVSNGNTNTVETRQKETLKVVVTEVLGGGRFYVQSAGDQKIASIQNQLASLSIKDAPIIGSFNPKRGDIVLAQFSLDNSWNRAMIVTAPRAAVQSPDEKFEVFYIDYGNQETVPYSAIRPIDPSVSAAPGLAQLCRLAYIKVPSLEDDFGPEAGEYLHTVTLGSGKEFKAVIEERDTSGGKVKGQGTGTEFVVTLIAVDDEISVNAAMLQEGIARMEKRQKWGHKGKQAALDALEKFQEEARKSRIGIWQYGDIESDDEDTGPARKPAGGRR	binds
YFPc-GPA1 (GUANINE NUCLEOTIDE-BINDING PROTEIN ALPHA-1 SUBUNIT fused to the C-terminal part of YFP) (protein, UniProt P18064 1-383) MGLLCSRSRHHTEDTDENTQAAEIERRIEQEAKAEKHIRKLLLLGAGESGKSTIFKQIKLLFQTGFDEGELKSYVPVIHANVYQTIKLLHDGTKEFAQNETDSAKYMLSSESIAIGEKLSEIGGRLDYPRLTKDIAEGIETLWKDPAIQETCARGNELQVPDCTKYLMENLKRLSDINYIPTKEDVLYARVRTTGVVEIQFSPVGENKKSGEVYRLFDVGGQRNERRKWIHLFEGVTAVIFCAAISEYDQTLFEDEQKNRMMETKELFDWVLKQPCFEKTSFMLFLNKFDIFEKKVLDVPLNVCEWFRDYQPVSSGKQEIEHAYEFVKKKFEELYYQNTAPDRVDRVFKIYRTTALDQKLVKKTFKLVDETLRRRNLLEAGLL	no binding
